Laboratory results: US6673832B1, “Methods for identifying compounds for treating pain” (priority 1998, dated 2004)
For at least one compound, name, drawing or mass did not settle the structure.

Columns and labels:
CCI rats = assay: Thermal hyperalgesia (hindpaw withdrawal latency) after sciatic nerve CCI; type: in vivo, rat; conditions: DEX 1.5 mg/kg i.p., 24 hr prior to and daily for 10 days after CCI
Protocol: (§1) CCI surgery. The sciatic nerve of a rat was exposed after blunt dissection of the biceps femoris. Four chromic gut ligatures (4-0) were placed around a […] section of sciatic nerve in the mid-thigh region. The ligatures were applied so that they constricted the diameter of the nerve just enough to impede circulation through the superficial vasculature (as visualized under an operating microscope at 40×). Sham-operated rats received an identical exposure of the left sciatic nerve without CCI. A coding system blinded the investigators to the nature of the surgery performed on individual rats.
Dexamethasone inhibits CCI-induced pain sensitivity. […] Thermal hyperalgesia was defined as a reduction in the latency to hindpaw withdrawal during a thermal stimulus applied to the plantar surface. […] Presumably, chemotactic signals overwhelmed the effects of DEX by 10 days to account for differences from baseline and between hindpaws at this timepoint (FIG. 8B).

[1] = system: sciatic nerve in rats with a chronic constriction injury; assay: Leukocytic profiles in sciatic nerve sections after CCI; type: in vivo, rat; conditions: DEX 1.5 mg/kg i.p. daily
Protocol: as §1
Histology. To compare the extent and type of cellular inflammation around the peripheral nerve due to CCI between DEX- and saline-treated rats, the ligated sciatic nerve was processed for histological analysis. At 3, 5, 7, and 10 days post-CCI, animals were euthanized with 100 mg/kg intraperitoneal sodium pentobarbital, and then transcardially perfused first with 50 ml of cold 0.9% NaCl, 1 ml/g body weight of 4% paraformaldehyde in 0.01 M phosphate buffered saline, pH 7.4 (PBS). […]
Quantitation of leukocytes in nerve sections. […] Cells present within vascular spaces or containing nuclei that could not be clearly differentiated from activated Schwann cells, fibroblasts or endothelial cells were not counted.

C[C@@H]1C[C@H]2[C@@H]3CCC4=CC(=O)C=C[C@]4(C)[C@@]3(F)[C@@H](O)C[C@]2(C)[C@@]1(O)C(=O)CO [DEX, Dexamethasone]
effect on thermal hyperalgesia after CCI (CCI rats): delayed the onset of thermal hyperalgesia | effect on leukocytic inflammatory response to CCI [1]: delayed the onset
